According to PubChem BioAssay AID540256 (National Center for Advancing Translational Sciences (NCATS), 2011):
“And” between values parts separate entries of the source, which are not always exact repeats. Identical values can stand only once. Hit rate of the full screen: of about 300,000 compounds, about 3,700 (1.2%) were called active. This list was built around the results that the source calls inconclusive (neither active nor inactive); the mix of calls is not that of the screen. The call rests on the fitted dose curve; tested in HEK293 cells. A potency beside an inconclusive call is a rough fit, not a confirmed value.

assay: qHTS for Inhibitors of binding or entry into cells for Lassa Virus; settings: Lassa virus pseudotype entry inhibition, cell reporter; series mostly up to 37.9 µM; further: nearly all actives have a fitted effect of over 50% in size
Potency means the concentration at half of the fitted maximal effect.

Row | SMILES | Potency
1 | CC(C)(C)c1cc(NC(=O)c2cccc([N+](=O)[O-])c2)no1 | inconclusive: 14.1 µM [inhibitor, single point]
2 | CN1C2CCC1CC(OC(=O)c1cc(Cl)cc(Cl)c1)C2 (centres undefined) | inconclusive: 12.6 µM [inhibitor, partial curve, poor fit] and inconclusive: 11.6 nM [activator, full curve, poor fit]
3 | COc1ccc(CC(=O)N2CCN(c3ccccc3F)CC2)cc1OC | inconclusive: 35.5 µM [inhibitor, partial curve, poor fit]
4 | Cc1cccc(N2C(=O)/C(=C/c3cccnc3)SC2=S)c1 | inconclusive: 25.1 µM [inhibitor, single point]
5 | COc1ccc(C(=O)N2CCc3cc(OC)c(OC)cc3C2COc2ccccc2OC)cc1 (centres undefined) | inconclusive: 6.31 µM [inhibitor, full curve]
6 | COc1cccc(NC(=O)COC(=O)COc2ccccc2[N+](=O)[O-])c1 | inactive
7 | O=C(Nc1ccc(Br)cn1)c1ccc2nccnc2c1 | inconclusive: 11.2 µM [inhibitor, partial curve]
8 | S=C(NCCSCc1ccccc1Cl)Nc1ccccc1 | inconclusive: 35.5 µM [inhibitor, single point]
9 | CCCCN(CC)C(=O)Nc1ccc2c(c1)N(C)C(=O)c1ccccc1S2 | inconclusive: 35.5 µM [inhibitor, single point]
10 | CCN(C(=O)CN1C(=O)S/C(=C\c2cccc(OC)c2)C1=O)C1CCS(=O)(=O)C1 (centres undefined) | inactive
11 | Cc1ccc(NC(=O)COC(=O)c2ccc(OCc3c(C)noc3C)cc2)cc1S(=O)(=O)N1CCOCC1 | inactive
12 | Cc1cc(C(=O)COC(=O)c2ccc(O)cc2O)c(C)n1-c1ccc(OC(F)F)cc1 | inconclusive: 17.8 µM [inhibitor, single point]
13 | CCOC(=O)c1sc(SCC(=O)Nc2ccc(N(C)C)cc2)nc1N | inconclusive: 14.6 µM [inhibitor, single point]
14 | CNCCCOc1cccc(Oc2ccccc2)c1 | inactive
15 | O=C(NC(Cc1ccc(O)cc1)C(=O)O)/C(=C/c1ccccc1)NC(=O)c1ccccc1 (centres undefined) | inconclusive: 1.26 µM [inhibitor, single point]
16 | O=C(O)CN1CCN(Cc2ccc(F)cc2Cl)C1=O | inactive
17 | CCC(=NCCCN1CCOCC1)c1c(O)n(Cc2ccccc2)c(=O)[nH]c1=O | inconclusive: 16.4 µM [inhibitor, partial curve, poor fit]
18 | CC1CCC(NC(=O)Cn2ncc3c4ccccc4n(Cc4ccc(Cl)cc4)c3c2=O)CC1 (centres undefined) | inconclusive: 14.1 µM [activator, single point]
19 | Cc1cc(S(=O)(=O)N2CCC3(CC2)OCCO3)c(C)cc1Cl | inactive
20 | COC(=O)c1c(NC(=O)/C=C/C(=O)O)sc(C)c1-c1ccc(C)cc1 | inconclusive: 11.2 µM [inhibitor, partial curve, poor fit]
21 | Cc1cc2c3c(c1C)C1(C(=O)N3C(C)(C)CC2C)C(C#N)=C(N)Oc2cc(O)ccc21 (centres undefined) | inconclusive: 25.9 µM [inhibitor, single point]
22 | CCCCC(=O)Nc1nnc(-c2ccco2)o1 | inconclusive: 35.5 µM [activator, single point]
23 | O=C(N/N=C/c1ccc(Br)o1)/C(=C/c1ccc([N+](=O)[O-])cc1)NC(=O)c1ccccc1 | inconclusive: 14.6 µM [inhibitor, partial curve, poor fit]

Row | SMILES | Potency
24 | COc1cccc(N2CC(NC(=O)COc3ccc4ccccc4c3)CC2=O)c1 (centres undefined) | inactive
25 | CCc1nnc(SCC(=O)Nc2cc(Cl)c(OC)cc2OC)c2cc3oc(C)cc3n12 | inconclusive: 3.16 µM [activator, partial curve, poor fit]
26 | C=C(C)c1cccc(C(C)(C)NC(=O)Nc2ccc(Cl)cn2)c1 | inconclusive: 3.55 µM [inhibitor, single point]
27 | CCC(C)(C)n1nnnc1CN1CCN(c2nc3cc(OC)ccc3cc2C#N)CC1 | inconclusive: 25.1 µM [inhibitor, single point]
28 | COc1ccc(OC)c(-c2noc(CSc3nnc(Cc4ccccc4)n3-c3cccc(C)c3)n2)c1 | inconclusive: 6.31 µM [inhibitor, full curve, poor fit]
29 | CCn1c2ccc(/C(C)=N\O)cc2c2cc(/C(C)=N\O)ccc21 | inactive
30 | Cn1c(=O)c2c(nc(NCc3ccco3)n2CC(O)COc2ccccc2)n(C)c1=O (centres undefined) | inconclusive: 35.5 µM [inhibitor, partial curve, poor fit]
31 | CN(C)c1ncnc2c1ccn2C1OC(CO)C(O)C1O (centres undefined) | active: 3.55 µM
32 | N/C(Cc1ccc(Cl)cc1)=N\OC(=O)c1cccc2ccccc12 | active: 11.6 µM
33 | CCOc1ccc(-c2ccc(SCC(=O)Nc3nnc(C)s3)nn2)cc1 | inconclusive: 10 µM [inhibitor, partial curve, poor fit]
34 | CCOc1ccc(C(=O)CC(Sc2ccc(C)cc2)C(=O)O)cc1 (centres undefined) | inactive
35 | CCc1ccc(S(=O)(=O)Nc2cccc(-c3ccc(N4CCOCC4)nn3)c2)cc1 | inconclusive: 5.62 µM [activator, single point]
36 | CCn1c(CC(=O)Nc2ccccc2Cl)nnc1SCC(=O)NC1CCCC1 | inactive
37 | CC(C)(C)c1ccc(C(=O)NCC(c2ccc(Cl)cc2)N2CCOCC2)cc1 (centres undefined) | inconclusive: 5.62 µM [inhibitor, full curve, poor fit]
38 | CCOc1ccc(NS(=O)(=O)c2ccc3c4c(cccc24)C(=O)N3)cc1 | inconclusive: 11.2 µM [inhibitor, partial curve, poor fit]
39 | Cc1ccc(CN(Cc2ccco2)C(=O)COc2ccc(C)c(C)c2)cc1 | inconclusive: 5.62 µM [activator, full curve]
40 | O=C(CNC(=S)N(Cc1ccccc1)Cc1ccccc1F)NCc1ccccc1 | inconclusive: 25.1 µM [inhibitor, single point]
41 | CCOc1ccccc1NC(=O)NC1(C(=O)NCC2CCCO2)CCCCC1 (centres undefined) | inactive
42 | O=C(O)c1ccc(-c2nc(-c3ccccc3)c(-c3ccccc3)[nH]2)cc1 | inconclusive: 4.47 µM [inhibitor, single point]
43 | COc1ccc(OCc2nnc(SCc3ccc(C(=O)O)cc3)o2)cc1 | inactive
44 | Cc1cc(NC(=O)COc2nnc(-c3ccccc3)c3ccccc23)no1 | inconclusive: 23.1 µM [inhibitor, single point]
45 | CCc1nn2cc(-c3ccccc3)nc2s1 | active: 8.2 µM
46 | Cc1ccc(C)c(N2CCN(C(=O)CSCc3ccccc3Cl)CC2)c1 | inconclusive: 1.78 µM [activator, single point]

Row | SMILES | Potency
47 | CO/N=C(/CS(=O)Cc1ccccc1Cl)c1ccc(Cl)cc1Cl (centres undefined) | inconclusive: 29.1 µM [inhibitor, single point]
48 | O=C(NCCc1cnn(-c2ccccc2)c1)c1cc(COc2c(F)cccc2F)on1 | inactive
49 | CC(=O)Nc1cccc(N2C(=O)CC(N3CCC(C(=O)N4CCCCC4)CC3)C2=O)c1 (centres undefined) | inactive
50 | CN(C)CCCN1c2ccc3ccccc3c2Sc2cccc(Cl)c21 | inconclusive: 35.5 µM [inhibitor, single point]
51 | O=S(=O)(Nc1nc2ccccc2nc1NCC1CCCO1)c1cccs1 (centres undefined) | inactive
52 | COc1ccc(OC)c(S(=O)(=O)Nc2cccc(-c3ccc(N4CCCCC4)nn3)c2)c1 | inactive
53 | C/C(=N/NC(=O)c1cc(C)[nH]n1)c1ccco1 | inconclusive: 2.51 µM [activator, single point]
54 | CC(C)(C)c1ccc(C(=O)Nc2onc3c2CCCC3)cc1 | inconclusive: 20 µM [inhibitor, single point]
55 | CC1=C(C(=O)Nc2ccc(F)cc2F)C2(CCN(C(C)C)CC2)OC1=O | inconclusive: 8.91 µM [activator, partial curve, poor fit]
56 | CC(C)CC(=O)N(c1nnc(-c2cccnc2)s1)C1CCCC1 | inactive
57 | CCN(CC)C(=O)CSc1nc(-c2ccc(C)cc2)nc2c1Cc1c(CO)cnc(C)c1O2 | inactive
58 | COc1ccc2c(c1)NC(C)(C)C=C2C | inactive
59 | Cc1ccc(/C=C/c2ccc(=O)n(Cc3ccc(Cl)cc3Cl)n2)cc1 | inactive
60 | Cc1cc(=O)n2nc(N3CCC(C(=O)NCc4ccco4)CC3)sc2n1 | inconclusive: 15.8 µM [activator, single point]
61 | CC1(C)CC2CC(C)(CN2C(=O)c2cc(-c3ccc(F)cc3)on2)C1 (centres undefined) | inconclusive: 6.31 µM [inhibitor, single point]
62 | O=C(CCc1ccc(O)c(O)c1)NNC(=S)NCCc1ccccc1 | inconclusive: 22.4 µM [inhibitor, single point]
63 | CCOc1cccc2cc(S(=O)(=O)c3ccccc3F)c(=O)oc12 | inactive
64 | CCS(=O)(=O)N1CC(=O)N(c2ccc(Cl)cc2)C(C)(C(=O)NC2CCCCC2)C1 (centres undefined) | inactive
65 | Cc1ccc(CO)cc1Nc1ncnc2onc(-c3ccc(F)cc3)c12 | inconclusive: 2 µM [inhibitor, partial curve, poor fit]
66 | Cc1ccc2c(c1)c1c(n2CC(O)CN2CCCCCC2)CCCC1 (centres undefined) | inconclusive: 35.5 µM [inhibitor, single point]
67 | CCc1nnc(NC(=O)c2ccc(S(=O)(=O)N3CCCC(C)C3)cc2)s1 (centres undefined) | inactive
68 | O=C(NCCC1CCCCN1S(=O)(=O)c1ccc(F)cc1)C(=O)NCC1CCCO1 (centres undefined) | inconclusive: 3.98 µM [activator, single point]
69 | COc1ccc(NC(=O)N2CCNC(=O)C2CC(=O)Nc2ccc(F)cc2)cc1 (centres undefined) | inactive
